Survivor count and T/C data for 15 compounds are collected here from PubChem BioAssay AID330 (DTP/NCI, 2004).

This assay has as its system P388 leukemia ip, CD2F1 mice, survival T/C. The assay is described as follows: NCI In Vivo Anticancer Drug Screen. Data for tumor model P388 Leukemia (intraperitoneal) in CD2F1 (CDF1) mice. As to conditions: T/C endpoint: median survival time, higher T/C = longer survival.
Where [1] appears, read: dose: 240.0 mg/kg/injection, schedule: Q01DX005 (ip), vehicle: saline with Tween-80.
[2] abbreviates: dose: 120.0 mg/kg/injection, schedule: Q01DX005 (ip), vehicle: saline with Tween-80.
[3] abbreviates: dose: 50.0 mg/kg/injection, schedule: Q01DX009 (ip), vehicle: Klucel (hydroxypropylcellulose) (HPC).
The mark [4] stands for this setting: dose: 200.0 mg/kg/injection, schedule: Q01DX009 (ip), vehicle: Klucel (hydroxypropylcellulose) (HPC).

Molecules are shown by their SMILES. The list is a part of this screen's results and no random one: it gathers tests that were run many times, whatever their T/C, doses with no T/C, and many T/C values between a quarter and a half above the control. Other doses and runs of a compound stand elsewhere. T/C: endpoint of the treated group in % of that of the vehicle group. Some doses have a count of surviving animals in place of a T/C: the source holds a T/C of zero for them, seemingly a mark for toxic or unscored doses. Some doses without a T/C left all or most animals alive at the check, yet need not have been tolerated: the source hardly ever lists a survival T/C far under the control, and the zero likely stands for such cases as well. Counts of survivors are from the toxicity check (mostly the fifth day) where no day follows; animals may have died later. Schedule codes are those of the source, read here as Q, the interval in days (D) or hours (H), X, the number of doses. Some entries hold several experiments; their values stand side by side, smallest first. For survival time, this PubChem deposit counts one and a half times the control or more as active, and values a quarter to a half above the control carry no call in these data; other NCI protocols may use other cut-offs. Some T/C values carry the count of animals alive at the toxicity check (mostly the fifth day); where none is given, no animal had died by that day.

Regarding `CCO/C=C1N=C(/C=C/c2ccc(Cl)cc2)OC/1=O`, the survivor count under setting [1] is reported as 6 of 6.
Same read-out and setting: in the case of `CCN(CC)CCNc1c(C)cccc1Cl` it was 0 of 6.
For `CCCCC(=O)c1c(O)c2ccccc2oc1=O`, the survivor count is given as 1 of 6 under setting [2] and 0 of 6 under setting [1].
Consider `CC(C)(O)C1C2OC(=O)C1C1(O)CC3OC34C(=O)OC2C14C` (stereo unspecified), for which, for the setting “dose: 75.0 mg/kg/injection, schedule: Q04DX003 (ip), vehicle: saline with Tween-80”, the survivor count is on record as 4 of 6.
Regarding `CSc1cc(C)[o+]c(C)c1`, the survivor count reads like this: (dose: 25.0 mg/kg/injection, schedule: Q01DX009 (ip), vehicle: Klucel (hydroxypropylcellulose) (HPC)) 6 of 6; under setting [4], 6 of 6; (dose: 400.0 mg/kg/injection, schedule: Q01DX009 (ip), vehicle: Klucel (hydroxypropylcellulose) (HPC)) 3 of 6. Also, the T/C is 125 % of control under setting [3]; 126 % of control (dose: 100.0 mg/kg/injection, schedule: Q01DX009 (ip), vehicle: Klucel (hydroxypropylcellulose) (HPC)); 136 % of control under setting [4].
For `CCOC(=O)C1=C(O)C(=O)NC1c1ccccc1` (stereo unspecified), the survivor count reads like this: (dose: 120.0 mg/kg/injection, schedule: Q01DX005 (ip), vehicle: Klucel (hydroxypropylcellulose) (HPC)) 0 of 6; (dose: 240.0 mg/kg/injection, schedule: Q01DX005 (ip), vehicle: Klucel (hydroxypropylcellulose) (HPC)) 0 of 6.
`COCC(=O)[C@]1(O)Cc2c(O)c3c(c(O)c2[C@@H](OC2CC(N)C(O)C(C)O2)C1)C(=O)c1c(OC)cccc1C3=O` (stereo partly specified): the T/C (dose: 50.0 mg/kg/injection, schedule: Q04DX003 (ip), vehicle: water) is 127 % of control.
As to `C1CCNCC1.CC(=O)[CH-]C(=O)c1ccccc1.CC(=O)[CH-]C(=O)c1ccccc1.CC(=O)[CH-]C(=O)c1ccccc1.CC(=O)[CH-]C(=O)c1ccccc1.[Eu+3]`, the survivor count is given as 6 of 6 under setting [3] and 6 of 6 under setting [4].
As to `COC(=O)/C1=C/N(C=O)CCCC2OC12C(=O)OC` (stereo unspecified), for the setting “dose: 400.0 mg/kg/injection, schedule: Q01DX001 (ip), vehicle: Klucel (hydroxypropylcellulose) (HPC)”, the survivor count is listed as 3 of 6.
As to `CCCCCC(Cn1ccnc1)c1c(Cl)cccc1Cl` (stereo unspecified), the survivor count was 3 of 6 (dose: 100.0 mg/kg/injection, schedule: Q04DX003 (ip), vehicle: saline); 2 of 6 (dose: 200.0 mg/kg/injection, schedule: Q04DX003 (ip), vehicle: saline); 1 of 6 (dose: 400.0 mg/kg/injection, schedule: Q04DX003 (ip), vehicle: saline).
With `Nc1nc(N)c2cc(NCc3ccccc3Cl)ccc2n1`, the survivor count is, setting by setting: (dose: 16.5 mg/kg/injection, schedule: Q01DX009 (ip), vehicle: saline with Tween-80) 5 of 6; (dose: 25.0 mg/kg/injection, schedule: Q01DX009 (ip), vehicle: saline with Tween-80) 1 of 6 and 5 of 6; (dose: 37.5 mg/kg/injection, schedule: Q01DX009 (ip), vehicle: saline with Tween-80) 0 of 6 and 3 of 6; (dose: 100.0 mg/kg/injection, schedule: Q01DX001 (ip), vehicle: saline with Tween-80) 1 of 6; (dose: 200.0 mg/kg/injection, schedule: Q01DX001 (ip), vehicle: saline with Tween-80) 0 of 6; (dose: 400.0 mg/kg/injection, schedule: Q01DX001 (ip), vehicle: saline with Tween-80) 0 of 6.
In the case of `O=C1c2ccccc2C(=O)c2c(NCCCNCCO)ccc(NCCCNCCO)c21`, the T/C (dose: 25.0 mg/kg/injection, schedule: Q01DX009 (ip), vehicle: other) is 132 % of control; the T/C (dose: 25.0 mg/kg/injection, schedule: Q01DX009 (ip), vehicle: water) was 128 % of control [5 of 6 alive]; the T/C (dose: 30.0 mg/kg/injection, schedule: Q01DX009 (ip), vehicle: water) was 127 % of control; the T/C (dose: 50.0 mg/kg/injection, schedule: Q01DX009 (ip), vehicle: other) was 132 % of control; the T/C (dose: 50.0 mg/kg/injection, schedule: Q01DX009 (ip), vehicle: water) is 133 % of control; the T/C (dose: 60.0 mg/kg/injection, schedule: Q01DX005 (ip), vehicle: other) is 128 % of control [5 of 6 alive]. Also, the T/C (dose: 60.0 mg/kg/injection, schedule: Q01DX009 (ip), vehicle: water) was 133 % of control. Besides, the survivor count is 0 of 6 (dose: 120.0 mg/kg/injection, schedule: Q01DX005 (ip), vehicle: other); 0 of 6 (dose: 120.0 mg/kg/injection, schedule: Q01DX009 (ip), vehicle: water); 1 of 6 (dose: 200.0 mg/kg/injection, schedule: Q01DX009 (ip), vehicle: other); 0 of 6 (dose: 200.0 mg/kg/injection, schedule: Q01DX009 (ip), vehicle: water); 0 of 6 (dose: 400.0 mg/kg/injection, schedule: Q01DX009 (ip), vehicle: other).
`CCOP(OCC)SSCn1nc2ccc3ccccc3n2c1=O`: the survivor count (dose: 60.0 mg/kg/injection, schedule: Q01DX005 (ip), vehicle: saline with Tween-80) is 6 of 6; the survivor count under setting [2] is given as 1 of 6; the survivor count under setting [1] is on record as 0 of 6.
As for `CCOc1c(N=Nc2ccccc2OC)c(C)nn1C(=S)SC`, the survivor count was 1 of 6 (dose: 60.0 mg/kg/injection, schedule: Q01DX005 (ip), vehicle: Klucel + Tween-80); 0 of 6 (dose: 120.0 mg/kg/injection, schedule: Q01DX005 (ip), vehicle: Klucel + Tween-80); 0 of 6 (dose: 240.0 mg/kg/injection, schedule: Q01DX005 (ip), vehicle: Klucel + Tween-80).
Regarding `Cc1cc2c(cc1C)-c1nn(-c3ccccc3)c(-c3ccc(Cl)cc3)c1CCO2`, the survivor count is, setting by setting: (dose: 100.0 mg/kg/injection, schedule: Q01DX005 (ip), vehicle: saline with Tween-80) 6 of 6; (dose: 200.0 mg/kg/injection, schedule: Q01DX005 (ip), vehicle: saline with Tween-80) 6 of 6.
